According to US20100137449A1, “SUBSTITUTED 1,3-CYCLOPENTADIONE MULTI-TARGET PROTEIN KINASE MODULATORS OF CANCER, ANGIOGENESIS AND THE INFLAMMATORY PATHWAYS ASSOCIATED THEREWITH” (METAPROTEOMICS, LLC, priority 2007, published 2010):
At least one compound was matched to its structure with a doubt left.

System: Female DBA/J mice
Experiment: Collagen induced rheumatoid arthritis murine model
Format: in vivo
Conditions: 20 mg/kg daily by gavage; days 32-42

Cc1ccc(-c2cc(C(F)(F)F)nn2-c2ccc(S(N)(=O)=O)cc2)cc1 [celecoxib]
arthritic index: significant reductions
